Laboratory results published in patent publication EP0334956A1, “HEMOLYSIS INHIBITOR AND MEDICAL RESIN COMPOSITION, MEDICAL IMPLEMENT, AND BLOOD-PRESERVING FLUID CONTAINING THE SAME” (KAO CORPORATION, priority 1986, dated 1988).
Structures can show the parent of a compound that is named as a salt. Where two headings read alike, the source gives them in different places. At least one read-out could not be matched to a standard name with certainty.

What was measured:
[1] = tested on: human platelet rich plasma; format: cell-based
Description: To determine the effects brought about on platelets by the compounds used in Examples 16 through 18, the test for recovery of function of platelets was carried out by the following procedure.
First, a solution of 20,000 ppm of isopropyl decyl maleate in methanol (Example 19), a solution of 20,000 ppm of isopropyl tetradecyl maleate in methanol (Example 20), a solution of 20,000 ppm of isopropyl decyl itaconate in methanol (Example 21), a solution of 20,000 ppm of di-2-ethylhexyl maleate in methanol (Control 24), a solution of 20,000 ppm of di-2-ethylhexyl phthalate in methanol (Control 25), a solution of 20,000 ppm of dinormal decyl phthalate in methanol (Control 26), and methanol containing no added compound (blank) were prepared. These solutions were severally added to human […] in a fixed amount of 1/100. The samples, 2 ml in volume of the resultant platelet poor plasma liquids were severally mixed with 1 ml of a human platelet rich plasma and the Tyrode solution (containing 4 x 10^-3 unit of 1 µM PGE1 per ml and 3.5 mg of apyrase per ml of BSA) and were then incubated at 37°C for 90 minutes. Then, the platelets in the incubated samples were washed [Legrand et al., Eur. J. Biochem. 142,465(1984)], resuspended in a Tyrode incorporating 2 ug proteins of apyrase per ml/BSA solution (a Tyrode solution, pH 7.35, containing 0.2mM of Cacl2, 1mM of MgCl2 , 5 mM of HEPES, and 3.5 mg/ml BSA), and tested for maximum agregation ratio with respect to 50 µM of. ADP and 10µg of collagen per ml in the presence of 0.2 mg of fibrinogen by the use of an instrument (produced by Kyoto Daiichikagaku K.K. and marketed under trademark designation of "Aggrecoder").
To determine the effects exerted on platelets by 2-ethylhexyl isostearate used in Example 24 and 2-ethylhexyl 2-ethylhexanoate used in Example 25, a test for the recovery of function of platelets was carried out by following the procedure of Examples 19 through 21. First, a solution of 20,000 ppm of 2-ethylhexyl isostearate in methanol (Example 26), a solution of 20,000 ppm of 2-ethylhexyl 2-ethylhexanoate in methanol (Example 27), a solution of 20,000 ppm of di-2-ethylhexyl phthalate in methanol (Control 33), and methanol containing no added compound (blank) were prepared. The procedure of Examples 19 through 21 was repeated on these solutions to determined maximum capacity for aggregation with respect to 50µM ADP and 10µg/ml collagen in the presence of 0.2 mg of fibrinogen per ml.

[2] = tested on: concentrated human red cells; assay: Hemolysis of CRC stored with blood preserving liquid (SAG solution/Tween 80 emulsion); format: cell-based; settings: 4°C, 5 weeks
Description: An emulsion was produced by dissolving Tween 80 (reagent grade produced by Wako Junyaku K.K.) in a SAG solution (containing 140 mM of NaCl, 1.25 mM of adenine and 50 mM of glucose) so as to be contained therein in a concentration of 600 µg/ml adding 12 mM isopropyl isotridecyl maleate to the resultant solution, and stirring the resultant mixture for uniform dispersion. In a stoppered polypropylene tube, a mixture of 1.0 ml of the emulsion prepared as described above and 2.0 ml of a liquid of concentrated human red cells adjusted in advance to a hematocrit value of about 70% was left standing at 4°C for 5 weeks. The resultant liquid was tested for free hemoglobin concentration in plasma by following the procedure of Example 1.
An emulsion was prepared by dissolving Tween 80 (reagent grade product of Wako Junyaku K.K.) in a SAG liquid so as to be contained therein in a concentration of 600 µg/ml, adding 12 mM of glycerine-l-butyl-3-isostearyl ether and stirring the resultant mixture for 'uniform dispersion. In a stoppered polypropylene tube, a mixture of 1.0 ml of the emulsion prepared as described above and 2.0 ml of CRC adjusted in advance to a hematocrit value of about 70% was left stnading at 4°C for 5 weeks. At the end of this standing, the CRC liqud was tested for change of free hemoglobin concentration in plasma by following the procedure of Example 1.
An emulsion was prepared by dissolving Tween 80 (reagent grade product of Wako Junyaku K.K.) in a SAG liquid so as to be contained therein in a concentration of 600 ug/ml, adding 12 mM of isopropyl isolaurate to the resultant solution, and stirring the resultant mixture for uniform dispersion. In a stoppered polypropylene tube, a mixture of 1.0 ml of the emulsion prepared as described above and 2.0 ml of CRC adjusted in advance to a hematocrit value of about 70% and then left standing at 4°C for 5 weeks. At the end of the satnding, the liquid was tested for free hemoglobin concentraiton in plasma by following the procedure of Example 1. The results are shown in Talbe 24.

[3] = Table 10, ADP 50 µM, 20,000 ppm methanol solution added in 1/100 to platelet poor plasma, 37°C, 90 minutes, washed platelets
[4] = Table 10, Collagen 10 µg/ml, 20,000 ppm methanol solution added in 1/100 to platelet poor plasma, 37°C, 90 minutes, washed platelets

| Structure (SMILES) | Maximum ratio of aggregation [1, 3] [%] | Maximum ratio of aggregation [1, 4] [%] | Maximum ratio of aggregation ([1]; Table 15, ADP 50 μM, 20,000 ppm methanol solution, procedure of Examples 19 through 21) [%] | Maximum ratio of aggregation ([1]; Table 15, Collagen 10 μg/ml, 20,000 ppm methanol solution, procedure of Examples 19 through 21) [%] | Concentration of Free Hemoglobin in Plasma ([2]; Table 22, final concentration of the additive in CRC 0.4 mM) [mg/dL] | Concentration of Free Hemoglobin in Plasma ([2]; Table 22, final concentration of the additive in CRC 4.0 mM) [mg/dL] | Concentration of Free Hemoglobin in Plasma ([2]; Table 23, final concentration of the additive in CRC 0.4 mM) [mg/dL] | Concentration of Free Hemoglobin in Plasma ([2]; Table 23, final concentration of the additive in CRC 4.0 mM) [mg/dL] | Concentration of Free Hemoglobin in Plasma ([2]; Table 24, final concentration of the additive in CRC 0.4 mM) [mg/dL] | Concentration of Free Hemoglobin in Plasma ([2]; Table 24, final concentration of the additive in CRC 4.0 mM) [mg/dL] |
| --- | --- | --- | --- | --- | --- | --- | --- | --- | --- | --- |
| CCCCC(CC)COC(=O)c1ccccc1C(=O)OCC(CC)CCCC (centres unmarked) [Di-2-ethylhexyl phthalate, reference compound] | 21.2 | 57.9 | 83.0 | 89.2 | 96 | 70 | 83 | 70 | 85 | 70 |
| CCCCCCCCCCOC(=O)c1ccccc1C(=O)OCCCCCCCCCC [Dinormal decyl phthalate, reference compound] | 39.0 | 70.5 | – | – | – | – | – | – | – | – |
| CCCCC(CC)COC(=O)/C=C\C(=O)OCC(CC)CCCC (centres unmarked) [Di-2-ethylhexyl maleate, reference compound] | 30.5 | 60.1 | – | – | – | – | – | – | – | – |
